Some of these results come from one statement about several compounds together. At least one compound was matched to its structure with a doubt left. Some compounds share one range, which may span the group rather than tell each member.
Tests used:
[1] = tested on: PC12-HS cells; test: Evaluation method A: neurocyte growth acceleration activity (Alamar blue); format: cell-based, rat; settings: 3 days culture, class of cell proliferation rate vs negative control = 100%
Text: (§1) As a model of the nerve cell, the NGF (nerve growth factor) highly sensitive strain of PC12 cell derived from the rat adrenal pheochromocytoma (hereinafter referred to as “PC12-HS cell”; JCRB cell bank, National Research and Development Institute of Health and Nutrition), which has been widely used as a suitable model for research on human neurodegenerative disease, was used. As the test compound, […] of trimethine cyanine dye compounds; NK-5 (Chemical formula 2), NK-36 (Chemical formula 3), NK-44 (Chemical formula 5) and dye compounds represented by Chemical formulae 12 to 18, and NK-6 (Chemical formula 7), which is a monomethine cyanine dye, were selected. In addition, two kinds of ethylene cross-linked dyes (Chemical formulae 19 and 20), 15 kinds of monomethine cyanine dyes (Chemical formulae 21 to 35), and seven kinds of trimethine cyanine dyes (Chemical formulae 36 to 42), which were expected to have a good neurocyte growth acceleration activity and/or neurite-outgrowth promoting activity in the screening disclosed in Patent literature 6, were also re-evaluated for comparison. The Chemical formulae 12 to 42 are shown below. […]

[2] = tested on: PC12-HS cells; test: Evaluation method B: neurite-outgrowth promoting activity in the presence of NGF; format: cell-based, rat; settings: NGF 10 ng/ml, 3 days, class of neurite-outgrowth rate
Text: as §1
As in the case of evaluation of neurocyte growth accelerating activity (Evaluation method A), 50 μl/well of each test compound solution, prepared by diluting with the culture medium to give a final concentration of 500 ng/ml, and the culture medium containing 20 ng/ml of mouse NGF (mouse derived, final concentration 10 ng/ml, commercialized by Chemicon International, Inc., CA, USA) (50 μl/well) were added to the precultured PC12-HS cells in each well, and then cultured for three days. […] The neurite-outgrowth rate (%) was determined by observing the cells using a microscope by adjusting the magnitude to give about 100 cells in one visual field, counting the number of cells having neurites twice or more in length of the cell body (major axis), dividing by the total number of cells in the same visual field, and multiplying by 100. […]

Structure (SMILES)	Action on PC12-HS growth acceleration (50 ng/ml) [1]	Action on PC12-HS neurite-outgrowth promotion (500 ng/ml) [2]
CN(C)c1ccc(C=Cc2oc3ccccc3[n+]2C)cc1.[I-] [NK-528]	circle (the relative value of 130% to 169% was judged to be equivalent to NK-4 (“circle”))	circle (When the mean neurite-outgrowth rate was 25 to 44%, it was judged to be equivalent to the positive control NK-4 (“circle”))
CCN1C(=CC(C)=Cc2sc3ccccc3[n+]2CCCS(=O)(=O)[O-])Sc2ccccc21 [NK-4781]	–	double circle (45% or more was judged to be more potent than NK-4 (“double circle”))
CCCCN1C=CC(=CC=Cc2cc[n+](CCCC)c3ccccc23)c2ccccc21.[I-] [NK-44]	circle (the relative value of 130% to 169% was judged to be equivalent to NK-4 (“circle”))	double circle (45% or more was judged to be more potent than NK-4 (“double circle”))

From US20220031690A1, “ANTI-NEURODEGENERATIVE DISEASE AGENT” (Hayashibara Co., Ltd., priority 2018, published 2022)
